These results are taken from article PMC5190079.

Chains of the proteins cited; added tags and fusions are not shown. Residues count along the entry.
UniProt Q03405, residues 23-305: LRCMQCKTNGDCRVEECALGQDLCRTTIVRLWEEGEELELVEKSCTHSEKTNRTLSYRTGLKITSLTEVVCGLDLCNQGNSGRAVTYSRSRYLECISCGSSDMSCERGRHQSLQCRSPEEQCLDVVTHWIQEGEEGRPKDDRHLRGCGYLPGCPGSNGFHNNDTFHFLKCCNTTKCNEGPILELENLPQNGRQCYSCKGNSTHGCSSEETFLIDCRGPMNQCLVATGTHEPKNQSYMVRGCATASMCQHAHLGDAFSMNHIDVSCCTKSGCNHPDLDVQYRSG
UniProt P67809: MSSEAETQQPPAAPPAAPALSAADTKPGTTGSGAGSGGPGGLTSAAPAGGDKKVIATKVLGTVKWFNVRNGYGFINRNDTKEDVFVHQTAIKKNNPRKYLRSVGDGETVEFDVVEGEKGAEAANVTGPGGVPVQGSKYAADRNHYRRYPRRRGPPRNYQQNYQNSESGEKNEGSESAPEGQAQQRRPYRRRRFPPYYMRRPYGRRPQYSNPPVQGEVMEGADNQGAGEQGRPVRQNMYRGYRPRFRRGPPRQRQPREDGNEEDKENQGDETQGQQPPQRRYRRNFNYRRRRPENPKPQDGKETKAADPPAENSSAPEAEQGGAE

The target in assay [1] is urokinase plasminogen activator receptor (plasminogen activator, urokinase receptor) (human (endogenous in MDA-MB-231)) (UniProt Q03405). The assay can be described thus: co-IP; co-IP of endogenous uPAR from MDA-MB-231 lysate with polyclonal anti-uPAR antibody (AF807), protein A/G PLUS beads; polyclonal goat isotype antibody as negative control; precipitates analysed by Western blot. For orientation: A western blot detects proteins with antibodies after separation by electrophoresis.

Assay [2] has the same target. In words: proximity ligation; DUOLink PLA on FFPE cell block sections: MDA-MB-231 mock control and uPAR-depleted (uPAR RNAi) cells, also BT549 and MCF7 cells; signals counted by confocal microscopy.
Assay [3] shares this target. In words: proximity ligation; DUOLink PLA on tissue microarray sections of FFPE TNBC tumour specimens; signals counted by confocal microscopy.

These are yes or no findings as the source states them, for the method shown. In cells and extracts the contact can be indirect. Some entries that bind do so weakly or less than the wild type.

Turning to “Y-box-binding protein 1 (from UniProt P67809 1-324)”, the binding entry in assay [1] and in assay [2] was “binds” each time.

B1: cysteine-rich angiogenic inducer 61 (protein, UniProt O00622 25-381)
chain: TCPAACHCPLEAPKCAPGVGLVRDGCGCCKVCAKQLNEDCSKTQPCDHTKGLECNFGASSTALKGICRAQSEGRPCEYNSRIYQNGESFQPNCKHQCTCIDGAVGCIPLCPQELSLPNLGCPNPRLVKVTGQCCEEWVCDEDSIKDPMEDQDGLLGKELGFDASEVELTRNNELIAVGKGSSLKRLPVFGMEPRILYNPLQGQKCIVQTTSWSQCSKTCGTGISTRVTNDNPECRLVKETRICEVRPCGQPVYSSLKKGKKCSKTKKSPEPVRFTYAGCLSVKKYRPKYCGSCVDGRCCTPQLTRTVKMRFRCEDGETFSKNVMMIQSCKCNYNCPHANEAAFPFYRLFNDIHKFRD
Take B1: the binding result in assay [1], in assay [2] and in assay [3] was “binds” in each case.
